Measurements as given in paper PMC3436762.
No constants are given. Whether binding was seen depends on the method and setting. In cells and extracts the contact can be indirect. Some binding calls cover weakened binding; strength is not graded here.

Amino acid sequences for entries named in this document (tags omitted). Residues count along the entry.
UniProt O14763, residues 56-440: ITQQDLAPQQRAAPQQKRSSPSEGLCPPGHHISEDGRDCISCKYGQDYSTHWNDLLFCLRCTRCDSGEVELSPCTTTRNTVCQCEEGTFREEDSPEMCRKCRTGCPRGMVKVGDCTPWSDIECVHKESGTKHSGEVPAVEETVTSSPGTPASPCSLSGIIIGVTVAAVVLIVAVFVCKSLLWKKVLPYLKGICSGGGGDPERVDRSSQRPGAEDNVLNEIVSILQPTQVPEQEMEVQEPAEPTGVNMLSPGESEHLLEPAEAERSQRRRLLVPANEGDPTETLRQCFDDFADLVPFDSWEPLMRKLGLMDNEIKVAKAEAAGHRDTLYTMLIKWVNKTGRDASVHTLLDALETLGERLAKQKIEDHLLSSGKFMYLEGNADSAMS
UniProt Q14790: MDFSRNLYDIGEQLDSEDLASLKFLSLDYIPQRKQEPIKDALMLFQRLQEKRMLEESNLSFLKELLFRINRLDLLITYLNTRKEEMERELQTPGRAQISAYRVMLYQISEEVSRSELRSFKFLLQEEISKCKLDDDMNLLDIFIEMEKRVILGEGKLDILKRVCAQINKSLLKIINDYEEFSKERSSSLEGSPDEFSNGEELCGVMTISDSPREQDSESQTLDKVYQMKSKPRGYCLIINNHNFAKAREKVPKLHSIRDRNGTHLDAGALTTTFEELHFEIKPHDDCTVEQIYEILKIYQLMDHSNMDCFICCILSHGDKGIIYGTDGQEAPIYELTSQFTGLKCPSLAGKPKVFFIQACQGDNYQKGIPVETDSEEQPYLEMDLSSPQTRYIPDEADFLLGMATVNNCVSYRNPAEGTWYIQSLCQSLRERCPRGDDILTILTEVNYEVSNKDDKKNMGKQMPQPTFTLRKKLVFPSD
UniProt Q13158: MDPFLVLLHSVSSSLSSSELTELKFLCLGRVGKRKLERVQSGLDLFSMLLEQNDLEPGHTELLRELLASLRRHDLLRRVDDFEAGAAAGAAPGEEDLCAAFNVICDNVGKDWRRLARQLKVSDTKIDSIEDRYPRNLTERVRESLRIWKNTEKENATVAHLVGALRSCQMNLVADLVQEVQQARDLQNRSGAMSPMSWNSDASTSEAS

Columns and labels:
[1] = target: membrane DR5 (endogenous, Jurkat and Daudi cells) (human (endogenous in Jurkat and Daudi)) (UniProt O14763); assay: co-IP; Daudi cells (LaDR5-insensitive) treated with LaDR5 for 1 hour at 37°C, lysed in 20 mM Tris-HCl, 150 mM NaCl, 10 % glycerol, 2 mM EDTA, 1 % NP-40, pH 8.0; protein A beads; blot for FADD and caspase-8
[2] = target: membrane DR5 (endogenous, Jurkat and Daudi cells) (human (endogenous in Jurkat and Daudi)) (UniProt O14763); assay: co-IP; Jurkat cells treated with LaDR5 for 1 hour at 37°C, lysed in 20 mM Tris-HCl, 150 mM NaCl, 10 % glycerol, 2 mM EDTA, 1 % NP-40, pH 8.0; protein A beads; blot for FADD and caspase-8

For “caspase-8 (from UniProt Q14790 1-479) (enzyme)”, the binding [1] was “no binding (condition: in Daudi cells (LaDR5-insensitive))”.

With “FAS associated protein with death domain (FADD) (from UniProt Q13158 1-208)” the binding [1] was “no binding (condition: in Daudi cells (LaDR5-insensitive))” and the binding [2] was “binds”.
